Data taken from PubChem BioAssay AID2551 (National Center for Advancing Translational Sciences (NCATS), 2010).
Out of some 310,000 compounds screened, about 17,000 (5.5%) were called active. The inconclusive results got no clear call from the source; some entries with a clear call stand among them for comparison. Calls come from the whole dose curve; as a rule, active = well fitted inhibition curve with a large enough effect; inconclusive = small, poorly fitted or top-dose-only effect, or effect the other way; inactive = no such curve, though single readings can be large or run the other way. Potencies beside an inconclusive call are fits to weak or partial responses and may not hold up.

Amino acid sequences for entries named in this document (tags omitted). A change or cut given only in a name is not applied to a line headed by its entry.
UniProt P51450: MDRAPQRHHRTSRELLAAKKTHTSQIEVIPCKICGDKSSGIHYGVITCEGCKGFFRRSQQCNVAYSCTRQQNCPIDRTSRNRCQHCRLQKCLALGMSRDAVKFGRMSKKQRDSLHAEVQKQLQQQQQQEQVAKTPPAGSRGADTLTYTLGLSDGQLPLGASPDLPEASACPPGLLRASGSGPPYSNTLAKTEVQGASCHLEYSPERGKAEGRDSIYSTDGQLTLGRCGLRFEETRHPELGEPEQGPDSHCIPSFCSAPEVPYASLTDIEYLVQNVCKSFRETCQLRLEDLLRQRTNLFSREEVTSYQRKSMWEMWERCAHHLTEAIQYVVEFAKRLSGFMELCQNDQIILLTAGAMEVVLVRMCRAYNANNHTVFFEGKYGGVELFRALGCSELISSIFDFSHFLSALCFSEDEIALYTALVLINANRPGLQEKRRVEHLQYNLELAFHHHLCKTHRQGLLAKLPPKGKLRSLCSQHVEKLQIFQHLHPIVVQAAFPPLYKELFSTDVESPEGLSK

The compounds below were run against Nuclear receptor ROR-gamma (Mus musculus) (UniProt P51450) (assay: qHTS for inhibitors of ROR gamma transcriptional activity). Settings: Drosophila S2 Gal4-RORgamma UAS-luciferase reporter, 20 h; activity change, negative = inhibition: at 53.6 µM (top of the series).
In short: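 Read-out: Photinus luciferase luminescence; inhibitors lower reporter signal. Insect Schneider cells with Gal4-ROR gamma fusion under metallothionein promoter, UAS reporter; 700 uM final copper sulfate induction, 20 hr, ambient temperature.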
% is set by controls: 0 for no effect and ±100 for the full control effect; potency is the fitted concentration of half-maximal effect.
Note: nearly all actives have a fitted effect of over 60% in size.

Row | SMILES | activity change, negative = inhibition | Potency
1 | O=C(C(Cl)Cl)N1CCN(Cc2ccccc2)CC1 | inactive: -12.8% | –
2 | CC1(C)CC(=O)C/C(=N\NC(=S)NCc2ccccc2)C1 | – | active: 14.1 µM
3 | COC(=O)c1cc2c(s1)-c1ccccc1OC2 | – | inconclusive: 7.08 µM [activator, partial curve]
4 | COc1ccc(CCNC(=O)CN2CCCc3ccccc32)cc1OC | – | inconclusive: 6.31 µM [activator, single point]
5 | Cc1cc(/C=N/NC(=O)c2cc3ccccc3o2)c(C)n1C | – | inconclusive: 15.8 µM [inhibitor, single point]
6 | COCCCNC(=S)NCCc1ccc(F)cc1 | – | active: 10 µM
7 | CCOc1ccc(C(=O)NCCc2ccc3c(c2)OCCO3)cc1 | – | inconclusive: 10 µM [activator, partial curve]
8 | O=C(CNc1cccc2ccccc12)N/N=C/c1ccc([N+](=O)[O-])cc1 | – | inconclusive: 11.2 µM [activator, partial curve]
9 | O=C1C2=CC[C@H]3C(=O)N(Cc4ccc5c(c4)OCO5)C(=O)[C@@H]3[C@@H]2[C@H](O)[C@@H]2O[C@H]12 | – | active: 4.47 µM
10 | CON(C)c1nc(OCCNC(=O)COc2ccc(Cl)cc2C)nc(N(C)C)n1 | inactive: 0.3% | –
11 | Cc1ccc(OCc2n[nH]c(=S)n2C2CCCCC2)cc1 | – | active: 1.41 µM
12 | CCOc1ccccc1Nc1nc(-c2sc(NC(=O)c3ccc([N+](=O)[O-])cc3)nc2C)cs1 | – | active: 6.31 µM
13 | COc1ccc(CNC(=S)Nc2ccc(Br)cc2)cc1 | – | active: 10 µM
14 | CCCCNC(=S)Nc1ccc2[nH]c(=O)[nH]c2c1 | inactive: -2.56% | –
15 | CCN(CC(=O)Nc1cc(OC)ccc1OC)Cc1nc2ccccc2c(=O)[nH]1 | – | active: 20 µM
16 | CCOC(=O)c1c(C)[nH]c(C(=O)COC(=O)COc2ccccc2C)c1C | inactive: 6.07% | –
17 | Cc1ccc(Cn2c(SCC(=O)N3CC(=O)Nc4ccccc43)nc3ccccc3c2=O)cc1 | – | active: 1.58 µM
18 | O=[N+]([O-])c1ccc(Nc2c3ccccc3nc3ccccc23)cc1 | – | active: 22.4 µM
19 | NS(=O)(=O)c1cccc(NC(=O)c2ccccc2NS(=O)(=O)c2ccc(F)cc2)c1 | inactive: -3.39% | –
20 | Cc1cc(=O)oc2cc(NC(=S)NCc3ccccn3)ccc12 | – | inconclusive: 12.6 µM [inhibitor, single point]
21 | O=C(NCCOc1ccccc1)C1CCC(=O)N(Cc2ccc(Cl)cc2)C1 (stereo unspecified) | inactive: 2.92% | –
22 | COc1ccc(CN(CCC(c2ccco2)C(C)C)C(C)=O)cc1OC (stereo unspecified) | – | inconclusive: 17.8 µM [activator, single point]
23 | CCc1nc(C(N)=O)c2[nH]c(=O)n(-c3ccc(OC)cc3OC)c2n1 | inactive: -30.5% | –
24 | Cc1cc(C(=O)NCC(=O)OCC(=O)N2CCCCCC2)ccc1[N+](=O)[O-] | – | inconclusive: 22.4 µM [activator, single point]
25 | COC(=O)Nc1ccc(S(=O)(=O)Nc2cc(OC)nc(OC)n2)cc1 | inactive: 6.6% | –
26 | CC(C)=CC(=O)NCCc1ccccc1 | – | inconclusive: 11.2 µM [inhibitor, single point]

Row | SMILES | activity change, negative = inhibition | Potency
27 | C/C(=N\NC(=S)NC1CCCCC1)c1ccc(OC(F)F)cc1OC(F)F | – | inconclusive: 6.31 µM [inhibitor, single point]
28 | Clc1cc(Sc2ccc(Br)cc2)nnc1-c1ccccc1 | inactive: 26.1% | –
29 | Cc1cc(C)n(-c2ccc(C(=O)OCC(=O)Nc3ccc([N+](=O)[O-])cc3)cc2)n1 | – | inconclusive: 10 µM [activator, partial curve]
30 | C=CCn1c(-c2ccc(OC)c(OC)c2)n[nH]c1=S | – | active: 3.16 µM
31 | COc1ccc(N=C2C(=Nc3ccc(OC)cc3)N(c3ccc(N(C)C)cc3)C(=S)N2c2ccc(OC)cc2)cc1 | inactive: 1.12% | –
32 | COc1ccc(S(=O)(=O)N2CCN(C)CC2)cc1C | – | inconclusive: 3.16 µM [inhibitor, single point]
33 | CCOC(=O)c1cnc(-n2nc(C)cc2C)nc1N(C)C | – | active: 1.12 µM
34 | COC(=O)C1=CN(Cc2ccc(F)cc2)C=C(C(=O)OC)C1c1cc(OC)c(OC)c(OC)c1 | inactive: 20.4% | –
35 | COc1ccc(N2CCN(CC(=O)NCc3ccc(Cl)cc3)CC2)cc1 | – | inconclusive: 35.5 µM [activator, single point]
36 | Cc1ccc([C@@H]2C3COCC=C3C(C#N)=C(N)C2(C#N)C#N)o1 (stereo partly specified) | – | inconclusive: 10 µM [inhibitor, partial curve]
37 | O=C1NC2=C(CCc3ccccc32)C(c2ccc(Br)cc2)N1 (stereo unspecified) | inactive: -19.9% | –
38 | CCn1nnnc1NCc1ccc(N2CCCC2)cc1 | inactive: 2.43% | –
39 | Cc1nn(-c2ccccc2)c(C)c1/C=N/NC(=O)c1cc(-c2ccc(Br)s2)[nH]n1 | – | inconclusive: 6.31 µM [activator, full curve]
40 | O=[N+]([O-])c1ccc(O)c(CSc2nnnn2-c2ccccc2)c1 | – | inconclusive: 31.6 µM [activator, single point]
41 | O=C(OCC(=O)N1CCc2ccccc2C1)c1cccnc1Cl | – | inconclusive: 17.8 µM [activator, single point]
42 | O=C(NCc1ccccc1F)C1CCCN1C(=O)Nc1ccccc1 (stereo unspecified) | – | inconclusive: 28.2 µM [inhibitor, partial curve]
43 | CS(=O)(=O)N(CC(=O)NC1CCCC1)c1ccc(Oc2ccccc2)cc1 | – | inconclusive: 14.1 µM [activator, single point]
44 | Cc1nc2sc3c(c2c2nnc(SCC(=O)NCc4ccco4)n12)CCCC3 | inactive: -40.4% | –
45 | CCOC(=O)c1c(NC(C)=O)sc2c(OCC(O)CN(CC)CC)c(Br)ccc12 (stereo unspecified) | – | inconclusive: 0.562 µM [inhibitor, single point]
46 | CNC(=O)c1[nH]cnc1C(=O)N[C@@H](Cc1ccccc1)C(=O)OC(C)(C)C | – | active: 7.94 µM
47 | COc1ccc(C2(CNC(=O)c3ccccc3)CCCC2)cc1OC | – | inconclusive: 15.8 µM [activator, single point]
48 | O=C(COC(=O)c1cc(=O)[nH]c2ccccc12)Nc1nc(-c2cccc(Br)c2)cs1 | – | inconclusive: 11.2 µM [activator, partial curve]
49 | CCN(CC)S(=O)(=O)c1ccc(C2=NOC3(C2)N(C)c2ccccc2C3(C)C)cc1 (stereo unspecified) | – | inconclusive: 10 µM [activator, partial curve]
50 | O=S(=O)(/N=C(/Nc1cccc2ccccc12)c1ccccc1)c1ccc(Br)cc1 | inactive: 18% | –
51 | O=S(=O)(c1ccc(NC(=S)NN=C2CCCCC2)cc1)N1CCOCC1 | – | active: 8.91 µM
52 | CCn1c(-c2ccc(-c3ccccc3)cc2)c[nH]c1=S | – | active: 1.78 µM

A different layout for five compounds above:
Row,SMILES,"activity change, negative = inhibition",Potency
39,Cc1nn(-c2ccccc2)c(C)c1/C=N/NC(=O)c1cc(-c2ccc(Br)s2)[nH]n1,–,"inconclusive: 6.31 µM [activator, full curve]"
40,O=[N+]([O-])c1ccc(O)c(CSc2nnnn2-c2ccccc2)c1,–,"inconclusive: 31.6 µM [activator, single point]"
41,O=C(OCC(=O)N1CCc2ccccc2C1)c1cccnc1Cl,–,"inconclusive: 17.8 µM [activator, single point]"
42,O=C(NCc1ccccc1F)C1CCCN1C(=O)Nc1ccccc1 (stereo unspecified),–,"inconclusive: 28.2 µM [inhibitor, partial curve]"
43,CS(=O)(=O)N(CC(=O)NC1CCCC1)c1ccc(Oc2ccccc2)cc1,–,"inconclusive: 14.1 µM [activator, single point]"

Going on with the list:

Row | SMILES | activity change, negative = inhibition | Potency
53 | Cc1cc(/C=C2\SC(=S)NC2=O)c(C)n1-c1cccc(O)c1 | inactive: -34.2% | –
54 | CCOC(=S)SCC(=O)Nc1nc(-c2ccc(Br)cc2)cs1 | – | active: 5.01 µM
55 | O=C(Nc1ccc(N2CCCCC2)cc1)c1ccc([N+](=O)[O-])o1 | – | inconclusive: 22.4 µM [inhibitor, single point]
56 | CSc1ccc(/C=N/n2nnnc2N)cc1 | – | inconclusive: 5.62 µM [activator, single point]
57 | O=C(CCc1ccccc1)Nc1ccccc1[N+](=O)[O-] | inactive: 27% | –
58 | Cc1ccc(NC(=O)/C=C\C(=O)O)c([N+](=O)[O-])c1 | inactive: -15.8% | –
59 | COc1ccc(S(=O)(=O)N2N=C(c3ccc(NS(C)(=O)=O)cc3)CC2c2ccco2)cc1 (stereo unspecified) | – | inconclusive: 11.2 µM [activator, partial curve]
60 | CN(CC(=O)Nc1cccc(F)c1)C(=O)COc1cccc2c1OC(C)(C)C2 | – | inconclusive: 12.6 µM [activator, single point]
61 | Cc1[nH]n(-c2ccc([N+](=O)[O-])cc2)c(=O)c1C=NCCN1CCN(C(=O)c2ccc(Br)cc2)CC1 | – | inconclusive: 20 µM [inhibitor, single point]
62 | O=C(CSc1nnc(CNc2ccc(F)cc2)n1CC1CCCO1)Nc1ccccc1 (stereo unspecified) | inactive: 6.65% | –
63 | O=[N+]([O-])c1ccc(N/N=C2/CCCCC2c2ccccn2)cc1 (stereo unspecified) | inactive: -1.97% | –
64 | COc1cccc(C(C)NC(=O)Nc2cc(Cl)ccc2OC)c1 (stereo unspecified) | inactive: -35.9% | –
65 | CC(C)(C)c1nn(-c2ccccc2)c2[nH]c(=O)c(CNc3ccc4c(c3)OCCO4)cc12 | – | inconclusive: 10 µM [inhibitor, partial curve]
66 | CCCCC(CC)C/C=C1\CC(C(=O)OCC)Oc2ccccc21 (stereo unspecified) (tested in a mixture with another compound) | – | active: 1.58 µM
67 | N#Cc1nc(-c2ccc(F)cc2)oc1NCc1ccco1 | inactive: 11.8% | –
68 | N=c1oc2cc(O)ccc2cc1C(=O)Nc1ccc(Br)cc1 | – | active: 1.78 µM
69 | COc1cccc(C2=CC(c3ccccc3)n3nnnc3N2)c1 (stereo unspecified) | – | inconclusive: 12.6 µM [inhibitor, single point]
70 | Cc1cc(=O)n(C)c(=O)n1CCCCCCOc1cccc([N+](=O)[O-])c1 | inactive: 2% | –
71 | Cc1ccc(Nc2nnc(SCC(=O)c3cc4ccccc4o3)s2)cc1C | – | inconclusive: 35.5 µM [inhibitor, single point]
72 | CCc1ccc2c(c1)C1(C(=O)N2)N2CCCC2C(C(=O)c2ccc3ccccc3c2)C12C(=O)Nc1ccccc12 (stereo unspecified) | – | inconclusive: 35.5 µM [inhibitor, single point]
73 | O=C(Nc1ncc([N+](=O)[O-])s1)C1COc2ccccc2O1 (stereo unspecified) | – | inconclusive: 35.5 µM [inhibitor, single point]
74 | O=C(CN1CCc2cc3c(cc2C1)OCCCO3)Nc1cccc(Br)c1 | – | inconclusive: 12.6 µM [activator, single point]
75 | Cc1ccc(C(=O)Nc2ccc(N3CCN(S(C)(=O)=O)CC3)cc2)cc1C | inactive: 17.3% | –
76 | CN1CCN(NC(=O)CN2C(=O)/C(=C/c3ccccc3F)SC2=S)CC1 | – | active: 0.224 µM
